For part of these data: At least one compound was matched to its structure with a doubt left. Some of these results come from one statement about several compounds together.
Experiments:
Type in all cases: in vivo, rat
ZDF rats = assay: ZDF rats: comparison to rosiglitazone and metformin (glucose, HbA1c, meal tolerance, body weight); conditions: after treatment
Method: A saline treated group of lean rats was also included in the study. Treatment with all drugs was initiated before the rats became frankly diabetic, which occurs at about 8 weeks of age. Plasma glucose levels were measured 3 and 5 weeks after treatment initiation. Body weight was measured once every week; in addition, HbA, levels were measured at the end of the study by HPLC. A meal tolerance test was also performed after 4 weeks of treatment.
At the end of 5 weeks, some rats were sacrificed and the liver and epididymal fat pads were removed. The rest of the animals (n=4/group) were examined for changes in plasma glucose levels after cessation of treatment. Glucose measurements during the recovery phase were made 10 days and 5 weeks after stopping treatment. Tissue extracts were subjected to Western blot analysis to measure changes in PTP1B protein levels.

aged ZDF rats [1] = assay: Combination with rosiglitazone in aged ZDF rats: plasma glucose and weight gain; conditions: over three weeks, ISIS oligonucleotides 25 mg/kg i.p. twice a week, rosiglitazone 3 mg/kg/day, approx, no significant reduction vs saline
aged ZDF rats [2] = assay: Insulin tolerance test (ITT) in aged ZDF rats; conditions: week 3, insulin 1.5 U/Kg i.p.; saline approximately 18,600

Compound: CN(CCOc1ccc(CC2SC(=O)NC2=O)cc1)c1ccccn1 (stereo not drawn) [Rosiglitazone]
- body weight (ZDF rats): increased

Compound: ISIS 141923: CCTTCCCTGAAGGTTCCTCC; SEQ ID NO: 20, six-mismatch control of ISIS 113715, negative oligonucleotide control (chemistry not given here)
- blood glucose levels (aged ZDF rats [1]): 400 to 460 mg/dL
- average AUC of plasma glucose in insulin tolerance test (aged ZDF rats [2]): 13,800-14,600 mg/dL×min
